The data set in a line: general procedure: Fmoc solid-phase peptide synthesis; 2′-Cl-TrtCl polystyrene resin (1.1 mmol/g); HCTU/DIPEA. The conditions noted are these: whole synthesis; for isolated yield: overall, based on 100 % resin loading, scale of the general procedure 0.1 mmol.

HELM strings list residues between dots; [ac] is acetyl, [am] amide, other brackets name non-standard units.

As for “PEPTIDE1{G.F.[BB1].P.A}$PEPTIDE1,PEPTIDE1,1:R1-5:R2$$$V2.0”, the isolated mass was 14.6 mg and the isolated yield stood at 28%.
The like results for “PEPTIDE1{G.F.G.G.P.A}$PEPTIDE1,PEPTIDE1,1:R1-6:R2$$$V2.0” were, in that order, 18.5 mg and 38%.
Taken in the same sequence, the figures for “PEPTIDE1{G.F.[3Amb].I.A}$PEPTIDE1,PEPTIDE1,1:R1-5:R2$$$V2.0” were 16.7 mg and 32%.
Consider “PEPTIDE1{G.F.[BB3].P.A}$PEPTIDE1,PEPTIDE1,1:R1-5:R2$$$V2.0”, for which the isolated mass is listed as 11.5 mg and the isolated yield is 21%.
Taken in the same sequence, the figures for “PEPTIDE1{G.F.[BB1].I.A}$PEPTIDE1,PEPTIDE1,1:R1-5:R2$$$V2.0” were 13.4 mg and 25%.
Taken in the same sequence, the figures for “PEPTIDE1{G.F.[BB3].I.A}$PEPTIDE1,PEPTIDE1,1:R1-5:R2$$$V2.0” were 9.6 mg and 17%.
Substance “PEPTIDE1{G.F.[3Amb].P.A}$PEPTIDE1,PEPTIDE1,1:R1-5:R2$$$V2.0” yielded an isolated mass of 20.2 mg and an isolated yield of 40%.
Taken in the same sequence, the figures for “PEPTIDE1{G.F.G.G.I.A}$PEPTIDE1,PEPTIDE1,1:R1-6:R2$$$V2.0” were 15.6 mg and 30%.

The values above are taken from paper PMC12043042 (Chemistry (Weinheim an Der Bergstrasse, Germany), 2025).
